Laboratory results reported in PubChem BioAssay AID1508600 (Functional Genomics Laboratory (NCATS/FGL), 2020).
About 3,700 (7%) of roughly 53,000 sequences were called active.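 The calls were made as follows: active = gene knockdowns whose robust z-score for IL-1 alpha signal is at least 2 or at most -2, so actives lie on both sides; inactive = the rest.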 This is one part of the list.

Assay: Components of the Cytosolic LPS Sensing Pathway: Gene Identification via Genome-wide siRNA Screen;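 also: robust z of the log signal after scaling to non-targeting control siRNA wells of the plate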
Conditions: RAW264.7 macrophages, IL-1a HTRF, actives lie on both sides, screened at 100 nM (by protocol), cells primed 5 h with Pam3CSK4 first
How it was run: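 Read-out: IL-1a HTRF on supernatant, divided by plate negative-control median ×100, log-transformed and converted to robust z-score. Cells were RAW264.7 given 100 nM siRNA, Pam3CSK4-primed 5 hours, then LipidA-transfected 24 hour.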

Row | Sequence | z-score
1 | GGAAAAAUUUGAAGCAGGATT against Coa6 | inactive: -0.734
2 | CGUCAACAGGUUUGCUGUGTT against Gbx1 | inactive: -1.47
3 | CGUGAGAGAUACUUUUUAGTT against Rps6ka5 | inactive: -0.751
4 | GGUGCUGAAGAUGCUGACGTT against Zfp503 | inactive: -1.46
5 | GGACUGGUUUUUUUUUUGUTT against Denn2b | inactive: 0.236
6 | GGCUUUUUCCACAUGUGCCTT against Olfr514 | active: -2.29
7 | GCUUUGCAAUUCACAGGGATT against Scgb1b27 | inactive: -1.76
8 | CCGGUAUUUAGGAACUGCCTT against Irak2 | inactive: -1.66
9 | GGGACUCACAAUUGUAGAATT against Efemp1 | inactive: -0.058
10 | GGAGCAGCAUCCACACUUATT against E230015B07Rik | inactive: 0.81
11 | CCGUGGAACUUAAAUAGUUTT against Pard6g | active: 2.66
12 | CCAAUAUUUGGGAUACUGGTT against Sacm1l | inactive: -0.0488
13 | GCGAUGGCUAUUUUGAUUGTT against Nfkbib | inactive: 0.749
14 | GGAGAGAAAUUUGACACUCTT against Mgrn1 | inactive: -0.0326
15 | GGACUUGGAGACAUUGCUATT against Ifi209 | inactive: 0.548
16 | GCCUCUGGCAGAGAAAAGATT against 4930579K19Rik | inactive: -1.78
17 | CCAGCUUUUCCGAAUCAAUTT against Galnt7 | inactive: 0.926
18 | CCGUUUACUUCGUCCAAGUTT against Crlf1 | inactive: -0.134
19 | GGAAAAUGAUGGAGAGGAATT against Lysmd1 | inactive: -0.289
20 | GCAGCUCCAAAUCCUGUUCTT against Asb16 | inactive: -0.824
21 | GCCUUUCCUAGACUAUUACTT against Tor1a | inactive: 0.964
22 | GCUCAACAAAGCCUGUUCGTT against Zp3 | active: 2.35
23 | GCGAUUAUUUCGCUUUGGATT against Pcdha12 | inactive: -0.502

Row | Sequence | z-score
24 | UAUUCUAUCCGAACACCUUTT against Gm4884 | active: 2.19
25 | GGUUAUGAAUCUUUUCCCATT against Cyb5b | inactive: -0.608
26 | GCUUUGAGACCUAAUGAUGTT against 1810024B03Rik | inactive: -0.469
27 | GCUUUAGAAUCCAAUACAATT against Zhx1 | inactive: 0.466
28 | GGCCAAACGGAAAUUCAGCTT against Rax | inactive: 0.53
29 | GCUGAUCAAACAGAUUAUCTT against Fbxl3 | inactive: 0.191
30 | CCUAUAGCCUAUGAGAGAGTT against Dcaf17 | inactive: -0.306
31 | GCCAGAUCUCAAGAGGAUCTT against Chn2 | inactive: 0.699
32 | GGACCACUUGUAGUAUUUGTT against Map7d1 | inactive: 0.593
33 | GGAGAAAGAUGUUUACCGATT against Hyal2 | inactive: -0.533
34 | GGAAAUUUGCUCAUUCUAATT against Olfr1204 | inactive: 0.319
35 | GGUGAGAAAAGUGCAAGGCTT against Rps6kb2 | inactive: 0.145
36 | GCUGUGUUCAUCCAAAUACTT against Orc5 | inactive: 0.112
37 | GCCUAUGCCCUGCAUAAACTT against Hdac8 | inactive: -0.484
38 | GCAAUAACAGAUCUCGUUUTT against B3galt5 | inactive: 1.03
39 | GGAUUCAGGAACACGGAGATT against D17H6S53E | active: 2.29
40 | GCUUCGACGGUGUAUGGAATT against Cav3 | inactive: 0.31
41 | GGAGUUAAAGUCACUGUUUTT against Mapkap1 | inactive: -0.107
42 | GCUGUUUUAGUAGAGGUAATT against Tsfm | inactive: -0.708
43 | GGCUUUCUAAGAGACUAUUTT against Wnt7a | inactive: 0.567
44 | GGCUCUCACAGAUCCUAAATT against Abcd3 | inactive: -1.5
45 | GGAAGAUUUGGAAAAUGGATT against Dph3 | active: -2.19
46 | GGAACCUGUAAAAGCCUCUTT against Il1f6 | inactive: 1.03

In a second layout: results already given
GCUUCGACGGUGUAUGGAATT against Cav3
  z-score: inactive: 0.31
GGAGUUAAAGUCACUGUUUTT against Mapkap1
  z-score: inactive: -0.107
GCUGUUUUAGUAGAGGUAATT against Tsfm
  z-score: inactive: -0.708
GGCUUUCUAAGAGACUAUUTT against Wnt7a
  z-score: inactive: 0.567

(continued)

Row | Sequence | z-score
47 | CCCUUUUGGAAACACUUUUTT against Ehd2 | inactive: -0.464
48 | GGCCAGGAAAAAAUCUGCATT against Neu1 | inactive: -0.293
49 | CCAAGAAUCACUGUGUUUATT against Mcf2l | inactive: -0.182
50 | GGGACAGAUACUAAACUCUTT against Wfdc2 | active: 3.49
51 | CCCAUCAUAAGGCAUGUAUTT against Olfr748 | inactive: 0.126
52 | GCAGUUCAAGCAACGACGCTT against Pou3f1 | inactive: -0.257
53 | UCUCUCAUGAACUUCCACATT against Olfr1321 | inactive: 1.1
54 | GCUGGCACAAGGCAAAACCTT against Drd1 | inactive: -0.639
55 | CCAUGAAUAGCAUCUUUGCTT against Adamtsl2 | inactive: -0.25
56 | GGGCUCUGAGAAAAGACAATT against Spertl | inactive: 1.86
57 | CCAAUGGGCAAUGGAAUGATT against Sftpd | inactive: 1.03
58 | CCAAGGGUUGCUUCGAGCATT against Upk1a | inactive: -0.489
59 | CGUAGAAACAGUGCAGCAGTT against Ankrd54 | inactive: 0.456
60 | CCGACAAACGCAAGGUGAUTT against Rtl8c | inactive: -0.382
61 | GGGAAACAAACAGAAGAACTT against Cfap65 | inactive: -1.2
62 | GCUAUGUGUGGAACACCAUTT against Pus7 | inactive: 0.238
63 | GGAAGAAGCGAAGGGCACUTT against Ndufb7 | inactive: 0.353
64 | GCUCAAAACUCAAACUAGUTT against Zfp956 | inactive: -0.475
65 | GGUCUUUCUAUACAUCCUATT against Qsox1 | inactive: -1.43
66 | GGCCAUACUAUCUAUGCAATT against Ablim1 | inactive: -0.446
67 | GGCAUGAACUCAACAGAUUTT against Tnfrsf21 | inactive: 0.6
68 | GGACAAGUUUUCCUUUUCUTT against Phf2 | inactive: 1.21

As entered above:
GGCCAGGAAAAAAUCUGCATT against Neu1 – z-score: inactive: -0.293
GGACAAGUUUUCCUUUUCUTT against Phf2 – z-score: inactive: 1.21
